Results reported in PMC5951847.
For at least one entry, the source does not settle the construct or the ends of the probe. For some assays here: Weaker means in comparison with the reference protein, sequence or condition of that experiment. For some assays here: At least one verdict rests on a figure or table, not on a statement of the authors.

Sequences of proteins named here, by UniProt entry; tags and fusion partners are left off.
UniProt P31941, whole entry E72A: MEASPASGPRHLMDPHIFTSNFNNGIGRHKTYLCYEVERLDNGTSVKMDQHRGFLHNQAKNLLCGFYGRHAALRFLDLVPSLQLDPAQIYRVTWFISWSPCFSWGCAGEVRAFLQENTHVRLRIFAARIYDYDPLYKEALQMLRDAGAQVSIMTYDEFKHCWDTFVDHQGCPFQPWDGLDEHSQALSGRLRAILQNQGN

Key:
[1] = molecular target: A3A(E72A) (Homo sapiens) (UniProt P31941); assay: fluorescence anisotropy; details: pH 6.0, 50 mM MES pH 6.0, 100 mM NaCl, 0.5 mM TCEP, room temperature overnight, 10 nM TAMRA-oligo, competition with 300 nM A3A(E72A), pH series: acetate 4.0-5.0, MES 5.5-6.5, recombinant protein, protein details: His6-SUMO removed by Ulp1 (untagged), label: 5' TAMRA, single-stranded DNA
[2] = molecular target: A3A(E72A) (Homo sapiens) (UniProt P31941); assay: competition with a labelled probe; details: vs TAMRA-3A-TTCA-6A, 50 mM MES pH 6.0, 100 mM NaCl, 0.5 mM TCEP, room temperature overnight, 10 nM TAMRA-oligo, competition with 300 nM A3A(E72A), pH series: acetate 4.0-5.0, MES 5.5-6.5, recombinant protein, protein details: His6-SUMO removed by Ulp1 (untagged), label: unlabeled, single-stranded DNA
[3] = letters put together from the description

## AAAAAAAAAAAA [Poly A (12 A)]
[1]
  Kd: > 11 µM

## AAAAAUAAAAAA [Poly A-U (5A-U-6A)]
[1]; deoxyuridine at position 6, letters put together from the description
  Kd: > 6.5 µM

## AAATTCAAA [3A-TTCA-2A]
[2]; [3]
  binding result: binds more weakly

## AAATTCAAAAAAA [3A-TTCA-6A competitor]
[2]
  binding result: binds

## AATTCAAAA [2A-TTCA-3A]
[2]; [3]
  binding result: binds more weakly
